Measured values taken from patent US20160067195A1, “METHOD FOR TESTING RISK OF MULTIPLE SYSTEM ATROPHY, TEST KIT, AND DRUG FOR THE TREATMENT OR PREVENTION OF MULTIPLE SYSTEM ATROPHY” (The University of Tokyo, priority 2013, published 2016).
The name of at least one read-out is uncertain.

Assay: Clinical trial of ubiquinol: plasma CoQ10 concentration
Assay type: in vivo, human
Conditions: high dose administration
Source text: Coenzyme Q10 concentration in the plasma, leucocyte, and spinal fluid

## COc1c(O)c(C)c(C/C=C(\C)CC/C=C(\C)CC/C=C(\C)CC/C=C(\C)CC/C=C(\C)CC/C=C(\C)CC/C=C(\C)CC/C=C(\C)CC/C=C(\C)CCC=C(C)C)c(O)c1OC [ubiquinol]
  Bioavailability compared with ubiquinone: higher than that of ubiquinone
